{"source": "the supplement of paper PMC8728848", "binders": {"B1": {"name": "EUL D1A (Oryza sativa) (protein)", "chain": "MFGFGHHHNQAPAAPSDPNQIFKIFCRANENYCLTVRDSAVVLAPVNPKDEHQHWFKDMRFSTKVKDGEGMPAFALVNKATGLAVKHSLGQSHPVKLVPFNPEYEDASVLWTESKDVGKGFRCIRMVNNTRLNLDAFHGDKDHGGVRDGTTVVLWEWCKGDNQSWKILPWGPEAHSSSPGAATACTIGGVPVHTVRVFSAAGEDYCLTVRNGTACLAPKNPRDDYQHWIKDMRHSNKIRDEEGYPAFALVNKVTGEAIKHSTGQGHPVKLVPYNPEYQDESVLWTESKDVGKGFRCIRMVNNIYLNFDAFHGDKDHGGIHDGTEIVLWKWCEGDNQRWKILPWILEQKLISEEDLNSAVDHHHHHH"}}, "experiment_in_all_cases": "glycan array binding signal (z-score within array); higher = stronger binding", "details_in_all_cases": "glycan notation: IUPAC condensed, linker removed", "key": {"[1]": {"target": "Fuc(a1-2)Gal", "method_in_brief": "(§1)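 The binding signal is a Z-score computed within each array. Data were drawn from 3228 arrays in the Consortium for Functional Glycomics database, restricted to those with a known protein sequence. Scores were averaged over arrays of the same protein sequence at different concentrations or buffers, and over linkers, and negative values can be taken as non-binding.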"}, "[2]": {"target": "Fuc(a1-2)Gal(b1-3)GalNAc", "method_in_brief": "as §1"}, "[3]": {"target": "Fuc(a1-2)Gal(b1-3)GalNAc(a1-3)[Fuc(a1-2)]Gal(b1-4)Glc", "method_in_brief": "as §1"}, "[4]": {"target": "Fuc(a1-2)Gal(b1-3)GalNAc(a1-3)[Fuc(a1-2)]Gal(b1-4)GlcNAc", "method_in_brief": "as §1"}, "[5]": {"target": "Fuc(a1-2)Gal(b1-3)GalNAc(b1-3)Gal", "method_in_brief": "as §1"}, "[6]": {"target": "Fuc(a1-2)Gal(b1-3)GalNAc(b1-3)Gal(a1-4)Gal(b1-4)Glc", "method_in_brief": "as §1"}, "[7]": {"target": "Fuc(a1-2)Gal(b1-3)GalNAc(b1-4)[Neu5Ac(a2-3)]Gal(b1-4)Glc", "method_in_brief": "as §1"}, "[8]": {"target": "Fuc(a1-2)Gal(b1-3)GlcNAc", "method_in_brief": "as §1"}, "[9]": {"target": "Fuc(a1-2)Gal(b1-3)GlcNAc(b1-2)Man(a1-3)[Fuc(a1-2)Gal(b1-3)GlcNAc(b1-2)Man(a1-6)]Man(b1-4)GlcNAc(b1-4)GlcNAc", "method_in_brief": "as §1"}, "[10]": {"target": "Fuc(a1-2)Gal(b1-3)GlcNAc(b1-2)Man(a1-3)[Fuc(a1-2)Gal(b1-3)GlcNAc(b1-2)Man(a1-6)]Man(b1-4)GlcNAc(b1-4)[Fuc(a1-6)]GlcNAc", "method_in_brief": "as §1"}, "[11]": {"target": "Fuc(a1-2)Gal(b1-3)GlcNAc(b1-3)Gal(b1-4)Glc", "method_in_brief": "as §1"}, "[12]": {"target": "Fuc(a1-2)Gal(b1-3)GlcNAc(b1-3)GalNAc", "method_in_brief": "as §1"}, "[13]": {"target": "Fuc(a1-2)Gal(b1-3)GlcNAc(b1-3)[Fuc(a1-2)Gal(b1-3)GlcNAc(b1-6)]GalNAc", "method_in_brief": "as §1"}, "[14]": {"target": "Fuc(a1-2)Gal(b1-3)GlcNAc(b1-3)[Gal(b1-4)GlcNAc(b1-6)]Gal(b1-4)Glc", "method_in_brief": "as §1"}, "[15]": {"target": "Fuc(a1-2)Gal(b1-3)GlcNAc(b1-3)[Neu5Ac(a2-6)Gal(b1-4)GlcNAc(b1-6)]Gal(b1-4)Glc", "method_in_brief": "as §1"}, "[16]": {"target": "Fuc(a1-2)Gal(b1-3)GlcNAc6S", "method_in_brief": "as §1"}, "[17]": {"target": "Fuc(a1-2)Gal(b1-3)[Fuc(a1-4)]GlcNAc", "method_in_brief": "as §1"}, "[18]": {"target": "Fuc(a1-2)Gal(b1-3)[Fuc(a1-4)]GlcNAc(b1-2)Man(a1-3)[Fuc(a1-2)Gal(b1-3)[Fuc(a1-4)]GlcNAc(b1-2)Man(a1-3)]Man(b1-4)GlcNAc(b1-4)GlcNAc", "method_in_brief": "as §1"}, "[19]": {"target": "Fuc(a1-2)Gal(b1-3)[Fuc(a1-4)]GlcNAc(b1-2)Man(a1-3)[Fuc(a1-2)Gal(b1-3)[Fuc(a1-4)]GlcNAc(b1-2)Man(a1-6)]Man(b1-4)GlcNAc(b1-4)[Fuc(a1-6)]GlcNAc(b1-4)[Fuc(a1-6)]GlcNAc", "method_in_brief": "as §1"}, "[20]": {"target": "Fuc(a1-2)Gal(b1-3)[Fuc(a1-4)]GlcNAc(b1-3)[Fuc(a1-3)[Gal(b1-4)]GlcNAc(b1-6)]Gal(b1-4)Glc", "method_in_brief": "as §1"}, "[21]": {"target": "Fuc(a1-2)Gal(b1-3)[Fuc(a1-4)]GlcNAc(b1-3)[Gal(b1-4)GlcNAc(b1-6)]Gal(b1-4)Glc", "method_in_brief": "as §1"}, "[22]": {"target": "Fuc(a1-2)Gal(b1-4)Glc", "method_in_brief": "as §1"}, "[23]": {"target": "Fuc(a1-2)Gal(b1-4)Glc6S", "method_in_brief": "as §1"}, "[24]": {"target": "Fuc(a1-2)Gal(b1-4)GlcNAc", "method_in_brief": "as §1"}, "[25]": {"target": "Fuc(a1-2)Gal(b1-4)GlcNAc(b1-2)Man", "method_in_brief": "as §1"}, "[26]": {"target": "Fuc(a1-2)Gal(b1-4)GlcNAc(b1-2)Man(a1-3)[Fuc(a1-2)Gal(b1-4)GlcNAc(b1-2)Man(a1-6)]Man(b1-4)GlcNAc(b1-4)GlcNAc", "method_in_brief": "as §1"}, "[27]": {"target": "Fuc(a1-2)Gal(b1-4)GlcNAc(b1-2)Man(a1-3)[Fuc(a1-2)Gal(b1-4)GlcNAc(b1-2)Man(a1-6)]Man(b1-4)GlcNAc(b1-4)[Fuc(a1-6)]GlcNAc", "method_in_brief": "as §1"}, "[28]": {"target": "Fuc(a1-2)Gal(b1-4)GlcNAc(b1-2)[Fuc(a1-2)Gal(b1-4)GlcNAc(b1-4)]Man(a1-3)[Fuc(a1-2)Gal(b1-4)GlcNAc(b1-2)Man(a1-6)]Man(b1-4)GlcNAc(b1-4)GlcNAc", "method_in_brief": "as §1"}, "[29]": {"target": "Fuc(a1-2)Gal(b1-4)GlcNAc(b1-3)Gal(b1-4)GlcNAc", "method_in_brief": "as §1"}, "[30]": {"target": "Fuc(a1-2)Gal(b1-4)GlcNAc(b1-3)Gal(b1-4)GlcNAc(b1-2)Man(a1-3)[Fuc(a1-2)Gal(b1-4)GlcNAc(b1-3)Gal(b1-4)GlcNAc(b1-2)Man(a1-6)]Man(b1-4)GlcNAc(b1-4)GlcNAc", "method_in_brief": "as §1"}}, "note": "This is one part of the list."}
{"binder": "B1", "values": [{"measurement": "glycan array binding signal (z-score)", "setting": "[1]", "result": -0.252}, {"measurement": "glycan array binding signal (z-score)", "setting": "[2]", "result": -0.934}, {"measurement": "glycan array binding signal (z-score)", "setting": "[3]", "result": 1.11}, {"measurement": "glycan array binding signal (z-score)", "setting": "[4]", "result": -0.481}, {"measurement": "glycan array binding signal (z-score)", "setting": "[5]", "result": -2.05}, {"measurement": "glycan array binding signal (z-score)", "setting": "[6]", "result": -0.463}, {"measurement": "glycan array binding signal (z-score)", "setting": "[7]", "result": 0.453}, {"measurement": "glycan array binding signal (z-score)", "setting": "[8]", "result": -0.58}, {"measurement": "glycan array binding signal (z-score)", "setting": "[9]", "result": 1.28}, {"measurement": "glycan array binding signal (z-score)", "setting": "[10]", "result": -0.846}, {"measurement": "glycan array binding signal (z-score)", "setting": "[11]", "result": 0.068}, {"measurement": "glycan array binding signal (z-score)", "setting": "[12]", "result": 1.63}, {"measurement": "glycan array binding signal (z-score)", "setting": "[13]", "result": -0.046}, {"measurement": "glycan array binding signal (z-score)", "setting": "[14]", "result": -0.123}, {"measurement": "glycan array binding signal (z-score)", "setting": "[15]", "result": -0.444}, {"measurement": "glycan array binding signal (z-score)", "setting": "[16]", "result": 0.203}, {"measurement": "glycan array binding signal (z-score)", "setting": "[17]", "result": -0.663}, {"measurement": "glycan array binding signal (z-score)", "setting": "[18]", "result": 0.914}, {"measurement": "glycan array binding signal (z-score)", "setting": "[19]", "result": 2.92}, {"measurement": "glycan array binding signal (z-score)", "setting": "[20]", "result": -0.224}, {"measurement": "glycan array binding signal (z-score)", "setting": "[21]", "result": 1.23}, {"measurement": "glycan array binding signal (z-score)", "setting": "[22]", "result": -1.99}, {"measurement": "glycan array binding signal (z-score)", "setting": "[23]", "result": -0.067}, {"measurement": "glycan array binding signal (z-score)", "setting": "[24]", "result": 0.007}, {"measurement": "glycan array binding signal (z-score)", "setting": "[25]", "result": 0.232}, {"measurement": "glycan array binding signal (z-score)", "setting": "[26]", "result": -0.008}, {"measurement": "glycan array binding signal (z-score)", "setting": "[27]", "result": 1.27}, {"measurement": "glycan array binding signal (z-score)", "setting": "[28]", "result": -0.681}, {"measurement": "glycan array binding signal (z-score)", "setting": "[29]", "result": 0.141}, {"measurement": "glycan array binding signal (z-score)", "setting": "[30]", "result": -0.433}]}
